{"source": "PubChem BioAssay AID485314", "about": "(National Center for Advancing Translational Sciences (NCATS), 2010)", "note": "Hit rate of the full screen: of about 340,000 compounds, about 4,500 (1.3%) were called active. Inconclusive means that the source gave no clear call. Such entries were picked first, then a sample of the others. The call rests on the fitted dose curve; in most records, active means well fitted inhibition curve with a large enough effect; inconclusive means small, poorly fitted or top-dose-only effect, or another doubt; inactive means no such curve, though single readings can be large or run the other way. Potencies beside an inconclusive call are fits to weak or partial responses and may not hold up. On the % scale 0 is the no-effect control and ±100 the full control effect; potency means the concentration at half of the fitted maximal effect.", "data": [{"biological_target": "DNA polymerase beta (Homo sapiens) (UniProt P06746)", "assay": "qHTS Assay for Inhibitors of DNA Polymerase Beta", "conditions": "Pol beta primer extension/strand displacement, fluorescence kinetic; activity change, negative = inhibition: at 114 µM (top of the series)", "summary_of_the_method": "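Pol beta (10 nM) and compounds were preincubated 15 min at room temperature, then 50 nM substrate (final) started primer extension/strand displacement. Reads were taken at 0 and 10 min; concentration-response data were fitted to a four-parameter Hill equation.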", "values": [{"smiles": "Cn1nc(C(=O)N2CCN(c3ccccc3)CC2)c2c1-c1ccccc1S(=O)(=O)C2", "activity change, negative = inhibition": "inconclusive: -42.6% [inhibitor]"}, {"smiles": "CC(C)(C)OC(=O)CN1C(=O)NC(Cc2c[nH]c3ccccc23)C1=O", "note": "(stereo not given)", "Potency": "inconclusive: 89.1 µM [inhibitor, single point]"}, {"smiles": "CC(NC(=O)CCc1nnc(-c2ccc(-c3ccccc3)cc2)o1)c1nccs1", "note": "(stereo not given)", "Potency": "inconclusive: 79.4 µM [inhibitor, single point]"}, {"smiles": "O=C(CSc1nc2c([nH]c3ccccc32)c(=O)n1-c1ccccc1)N1CCCC1", "Potency": "active: 20 µM"}, {"smiles": "N=C1/C(=C\\c2ccc(-c3cccc(C(=O)O)c3)o2)C(=O)N=C2SC=C(c3ccccc3)N12", "Potency": "active: 20 µM"}, {"smiles": "CCN1CCN(Cc2c(O)c(Cl)cc3c(C)cc(=O)oc23)CC1", "Potency": "inconclusive: 20 µM [inhibitor, full curve]"}, {"smiles": "O=C(c1cc(-c2ccccn2)nc2c(Cl)cccc12)N1CCN(C(=O)C2CCCO2)CC1", "note": "(stereo not given)", "Potency": "inconclusive: 3.55 µM [inhibitor, full curve]"}, {"smiles": "COC(=O)c1ccsc1NC(=O)CCc1ccccc1", "activity change, negative = inhibition": "inconclusive: -38.7% [inhibitor]"}, {"smiles": "CCN(CC)S(=O)(=O)c1cc(C(=O)O)ccc1Cl", "Potency": "inactive"}, {"smiles": "O=C1C2C3CCC(C3)C2C(=O)N1CNc1ccc(F)cc1", "note": "(stereo not given)", "Potency": "inconclusive: 0.1 µM [inhibitor, full curve, poor fit]"}, {"smiles": "O=C(Nc1ncc([N+](=O)[O-])s1)c1ccccc1Br", "Potency": "inconclusive: 14.1 µM [inhibitor, partial curve]"}, {"smiles": "Cc1c(C(=O)O)cccc1-n1c(C)cc(C=O)c1C", "Potency": "active: 15.8 µM"}, {"smiles": "Cc1ccc2c(nc3s/c(=C/c4cccs4)c(=O)n32)c1C", "Potency": "active: 31.6 µM"}, {"smiles": "O=C(Nc1ccc(N2CCOCC2)cc1)c1ccc(-c2ccccc2[N+](=O)[O-])o1", "Potency": "inconclusive: 2 µM [inhibitor, full curve, poor fit]"}, {"smiles": "CCOc1cc(S(=O)(=O)NCC2OCCc3ccccc32)c(OCC)cc1-n1cnnn1", "note": "(stereo not given)", "Potency": "inconclusive: 28.2 µM [inhibitor, single point]"}, {"smiles": "COc1cccc(/C=N/Nc2nnc(C)n2N)c1O", "Potency": "inactive"}, {"smiles": "O=S(=O)(Nc1ccccc1Cl)c1cccc2nsnc12", "Potency": "inconclusive: 22.4 µM [inhibitor, full curve]"}, {"smiles": "Cc1c(O)nc(SCC(=O)Nc2ccc3c4c(cccc24)CC3)n(-c2ccccc2)c1=O", "Potency": "inconclusive: 6.31 µM [inhibitor, partial curve]"}, {"smiles": "Cc1nn2cc(-c3ccccc3)nc2[nH]c1=O", "Potency": "inactive"}, {"smiles": "CC(=O)C1=C(C)NC2=C(C(=O)c3ccccc32)C1c1ccccc1", "note": "(stereo not given)", "Potency": "inconclusive: 89.1 µM [inhibitor, single point]"}]}]}
